# Measured values reported in article PMC10135569, “Does Enhanced Structural Maturity of hiPSC-Cardiomyocytes Better for the Detection of Drug-Induced Cardiotoxicity?” (Biomolecules, 2023).
# Where two headings read alike, the source gives them in different places.
# Tested on: hiPSC-CMs (iCell2 Cardiomyocytes) 2D monolayers
# Test: Membrane potential (action potential) recordings with FluoVolt voltage-sensitive dye on the CellOPTIQ platform
# Format: cell-based
# Settings: Homo sapiens, Cardiomyocyte, 0.5 h, 30 min, delta over DMSO 0.1%
# Method: Cardiomyocytes (FUJIFILM Cellular Dynamics, Madison, WI, USA) were kept at −190 °C and prepared for culture as per the manufacturer’s instructions.
# Standard fibronectin vs. Matrix Plus well coating: The cells were cultured using two different coatings in a humidified incubator at 37 °C with 5% CO2. First, 96-well glass-bottomed plates (MatTek, Ashland, MA) were coated with fibronectin ([…] in PBS supplemented with Ca^2+ and Mg^2+; Sigma, St. Louis, MO, USA) (defining FM). Second, CELLvo^TM Matrix Plus (StemBioSys, San Antonio, TX, USA), which were pre-coated on 96 well glass bottom plates and kept at 4 °C. On the day of plating, CELLvo^TM Matrix Plus plates were transferred to room temperature, rehydrated with phosphate buffer saline (PBS), incubated for 1 h at 37 °C, and washed 2× with PBS. Cells were introduced at a density of 50,000 cells/well to allow the formation of a confluent monolayer in each well (defined as MM). The maintenance protocols followed the manufacturer’s instructions and used the iCell^2 Cardiomyocytes Maintenance media for media changes every 2 days. Experiments were performed between days 5 and 6, as recommended by the manufacturers. Before beginning an experiment, cells were washed in serum-free media (SF media) (Fluorobrite DMEM, Gibco, Thermo Fisher Scientific, Horsham, UK).
# The drug powders were dissolved in DMSO, and four stock concentrations at 1000× the final target concentration were prepared in DMSO. For the experiment, an intermediate concentration 2× the target solution was prepared in SF media. The addition of drugs to the cells was accomplished by replacing 50% of the well volume with the intermediate 2× solution. The same procedure was done for vehicle control using DMSO. […]
# Cultures of hiPSC-CMs (5–6 days post-plating) were treated with FluoVolt dye (1:1000, Invitrogen, Cat# F10488) in SF media and incubated for 20 min at 37 °C with 5% CO2 and 80% humidity. […] The FluoVolt signal was recorded from a 0.2 mm × 0.2 mm area using a 40× (numerical aperture: NA 0.6) Excitation wavelength was 470 ± 10 nm using a light-emitting diode (LED), and emitted light was collected by two photomultipliers (PMTs) at 510–560 nm (channel 1) and 590–650 nm (channel 2), respectively. […] In the case of FluoVolt-based action potential recordings, the short wavelength (channel 1, […]) was analyzed for action potential features.
# The dye FluoVolt is loaded into the surface membrane (outer leaflet), and the dye remains within the membrane for many dots, allowing intermittent voltage measurements over the experimental period. […] Baseline spontaneous electrical activity and the associated contractility signal were recorded by capturing 10 s segments of fluorescent signal and video for 2D plates and 15 s for organoids from each well prior to compound addition. […]
smiles,measurement,setting,value
O=C(O)COCCN1CCN(C(c2ccccc2)c2ccc(Cl)cc2)CC1 (stereo not shown) [Cetirizine],activity at 1 µM,"FM monolayer, 1 µM, read-out: Trise (%DD)",114 ± 19.9%
same,activity at 0.1 µM,"MM monolayer, 0.1 µM, read-out: APD30 (%DD)",90 ± 1.8%
same,activity at 0.3 µM,"MM monolayer, read-out: APD30 (%DD)",90 ± 1.2%
same,activity at 0.3 µM,"MM monolayer, read-out: Trise (%DD)",90 ± 11.2%
